Out of some 360,000 compounds screened, about 7,500 (2.1%) were called active. This list was built around the results that the source calls inconclusive (neither active nor inactive); the mix of calls is not that of the screen. Calls follow the shape of the dose curve; as a rule, active = well fitted inhibition curve with a large enough effect; inconclusive = small, poorly fitted or top-dose-only effect, or effect the other way; inactive = flat fitted curve, though single readings scatter. A potency beside an inconclusive call is a rough fit, not a confirmed value.
experiment: Nrf2 qHTS screen for inhibitors; settings: A549 ARE-Fluc reporter, luciferase luminescence, 18-24 h; series mostly up to 46 µM; also: nearly all actives have a fitted effect of over 60% in size
Outline: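 Reporter: ARE-Fluc in A549. Exposure: 18-24 h, 37 °C, 5% CO2, 5% FBS OPTI-MEM. Readouts: fluorescent cytotoxicity (CellTiter-Fluor), then luminescent Nrf2 signal after BugLite.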
Potency is read from the fitted curve at half-maximal effect.

SMILES | Potency
Cc1nc(/N=C(\N)NC(=O)NC2CCCCC2)nc2ccccc12 | inconclusive: 29.1 µM [falling, single point]
CC1=CC(C)(C)N2C(=O)C3(NCCc4c3[nH]c3ccccc43)c3cc(C)cc1c32 (stereo not drawn) | inconclusive: 25.9 µM [falling, single point]
O=C(NCc1ccccc1)c1cc2ccc3cccnc3c2[nH]1 | inconclusive: 2.59 µM [activator, partial curve]
N#CCC(=O)Nc1ccc(C(=O)NCCc2c[nH]c3ccccc23)cc1 | inconclusive: 0.82 µM [falling, partial curve]
c1ccc(-c2nc(-c3ccncc3)no2)cc1 | inconclusive: 16.4 µM [activator, partial curve]
Cc1nnc(SCc2nc3ccccc3nc2C)s1 | inconclusive: 11.6 µM [activator, partial curve]
COc1ccc(CNc2ncnc3cc(Cl)ccc23)cc1OC | active: 16.4 µM
C=CCN(c1ccccc1)S(=O)(=O)c1cccc(C(=O)NCC(c2cccs2)N2CCOCC2)c1 (stereo not drawn) | inconclusive: 23.1 µM [falling, partial curve, poor fit]
CCN1CCN(CCNC(=O)c2cn(Cc3ccccc3F)nn2)CC1 | inactive
CC(C)Cc1cc(C(=O)Nc2ccc3c(c2)OCO3)no1 | inconclusive: 16.4 µM [activator, partial curve]
COc1ccc(C2(CNC(=O)/C=C/c3ccco3)CCCC2)cc1OC | inactive
COc1ccc(C2CC(c3ccccc3)=NN2C(=O)COC(=O)c2cccc(N)c2)cc1 (stereo not drawn) | inconclusive: 29.1 µM [falling, single point]
Cc1ccc(C)c(S(=O)(=O)N2CCN(C(=O)C3CCN(C(=O)c4ccc(F)cc4)CC3)CC2)c1 | inconclusive: 14.6 µM [falling, partial curve]
CC(C)(C)NC(=O)c1oc2ccccc2c1NC(=O)c1ccccc1F | inconclusive: 4.11 µM [falling, full curve, poor fit]
O=C(c1ccc(-c2ccccc2Cl)o1)N1CCC1 | inconclusive: 5.8 µM [activator, full curve]
CCC(C)NC(=O)CCC(=O)N1Cc2ccccc2Oc2ncccc21 (stereo not drawn) | inconclusive: 20.6 µM [activator, single point]
CSC1=NCCN1C(=O)Cc1ccc(-c2ccccc2)cc1 | inconclusive: 29.1 µM [falling, single point]
Cc1ccc(NC(=S)NC(NC(=O)c2ccccc2C)C(Cl)(Cl)Cl)c(C)c1 (stereo not drawn) | inconclusive: 4.11 µM [falling, single point]

For convenience, part of the list above.
SMILES | Potency
Cc1nnc(SCc2nc3ccccc3nc2C)s1 | inconclusive: 11.6 µM [activator, partial curve]
COc1ccc(CNc2ncnc3cc(Cl)ccc23)cc1OC | active: 16.4 µM

— PubChem BioAssay AID504444 (National Center for Advancing Translational Sciences (NCATS), 2011)
